Structures can show the parent of a compound that is named as a salt. Some entries share one result that the patent states for a list of compounds.
target: T1, Full length human TNNI3K (hTNNI3K) (Homo sapiens, UniProt Q59H18); test: Fluorescent polarization assay of compound inhibition on hTNNI3K ATP binding (Biological Assay Method I); conditions: mean of a minimum of 2 experiments; displacement of fluorescent ligand from hTNNI3K ATP binding pocket; 60 min at rt
T1 construct: His-MBP-TEV-Full length human TNNI3K (hTNNI3K); His (N); MBP (N); TEV cleavage site (N); made in house; host or cells: baculovirus expression system (printed 'Baculokinase system')
T1 sequence (Q59H18 1-835): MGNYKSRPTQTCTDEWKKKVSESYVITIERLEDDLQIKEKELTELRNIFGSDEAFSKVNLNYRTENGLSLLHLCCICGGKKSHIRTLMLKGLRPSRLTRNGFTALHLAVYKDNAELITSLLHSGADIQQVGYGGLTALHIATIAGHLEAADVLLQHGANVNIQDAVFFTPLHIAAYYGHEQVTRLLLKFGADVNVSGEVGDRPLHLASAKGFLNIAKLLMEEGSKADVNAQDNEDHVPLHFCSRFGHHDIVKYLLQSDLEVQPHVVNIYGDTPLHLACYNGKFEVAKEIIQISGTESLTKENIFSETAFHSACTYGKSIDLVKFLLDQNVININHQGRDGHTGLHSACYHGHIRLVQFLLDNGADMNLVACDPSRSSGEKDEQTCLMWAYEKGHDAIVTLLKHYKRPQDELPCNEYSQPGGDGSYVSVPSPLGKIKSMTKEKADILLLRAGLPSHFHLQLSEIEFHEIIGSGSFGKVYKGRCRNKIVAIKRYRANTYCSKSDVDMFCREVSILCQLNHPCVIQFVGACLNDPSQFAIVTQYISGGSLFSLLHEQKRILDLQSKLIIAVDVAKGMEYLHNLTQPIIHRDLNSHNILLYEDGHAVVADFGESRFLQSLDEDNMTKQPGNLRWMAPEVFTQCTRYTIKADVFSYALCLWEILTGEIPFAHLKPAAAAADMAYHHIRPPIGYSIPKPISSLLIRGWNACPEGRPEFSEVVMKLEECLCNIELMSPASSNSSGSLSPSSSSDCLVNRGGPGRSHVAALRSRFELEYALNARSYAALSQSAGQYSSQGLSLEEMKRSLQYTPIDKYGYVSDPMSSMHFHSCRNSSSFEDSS

pXC50, ≥ 6.0:
CNS(=O)(=O)c1ccc(N2CCC(F)(F)C2)c(Nc2cc(Nc3ccc(Cl)cc3)ncn2)c1 [Example 259, 3-({6-[(4-chlorophenyl)amino]-4-pyrimidinyl}amino)-4-(3,3-difluoro-1-pyrrolidinyl)-N-methylbenzenesulfonamide trifluoroacetate]
CNS(=O)(=O)c1cccc(Nc2cc(Nc3ccc(C)c(F)c3)ncn2)c1 [Example 100, 3-({6-[(3-fluoro-4-methylphenyl)amino]-4-pyrimidinyl}amino)-N-methylbenzenesulfonamide trifluoroacetate]
CNS(=O)(=O)c1cccc(Nc2cc(Nc3cc(C)cc(-c4cccnc4)c3)ncn2)c1 [Example 331, N-methyl-3-[(6-{[3-methyl-5-(3-pyridinyl)phenyl]amino}-4-pyrimidinyl)amino]benzenesulfonamide trifluoroacetate]
CNS(=O)(=O)c1ccc(SC)c(Nc2cc(Nc3cc(Cl)c(O)c(Cl)c3)ncn2)c1 [Example 152, 3-[6-(3,5-dichloro-4-hydroxy-phenylamino)-pyrimidin-4-ylamino]-N-methyl-4-methylsulfanyl-benzenesulfonamide trifluoroacetate]
CNS(=O)(=O)c1cc(Cl)cc(Nc2cc(Nc3ccc(Cl)cc3)ncn2)c1 [Example 7, 3-chloro-5-({6-[(4-chlorophenyl)amino]-4-pyrimidinyl}amino)-N-methylbenzenesulfonamide]
CNS(=O)(=O)c1cccc(Nc2cc(Nc3cc(F)c(F)c(F)c3)ncn2)c1.Cl [Example 190, N-methyl-3-[6-(3,4,5-trifluoro-phenylamino)-pyrimidin-4-ylamino]-benzenesulfonamide hydrochloride]
CNS(=O)(=O)c1cccc(Nc2cc(Nc3cccc(-c4cccc(C(N)=O)c4)c3)ncn2)c1 [Example 337, 3′-{[6-({3-[(methylamino)sulfonyl]phenyl}amino)-4-pyrimidinyl]amino}-3-biphenylcarboxamide]
CNS(=O)(=O)c1cccc(Nc2cc(Nc3ccc4[nH]c(=O)[nH]c4c3)ncn2)c1 [Example 218, N-methyl-3-({6-[(2-oxo-2,3-dihydro-1H-benzimidazol-5-yl)amino]-4-pyrimidinyl}amino)benzenesulfonamide trifluoroacetate]
CNS(=O)(=O)c1ccc(OC(C)C(F)(F)F)c(Nc2cc(Nc3ccc(Cl)cn3)ncn2)c1 (centres unmarked) [Example 308, 3-({6-[(5-chloro-2-pyridinyl)amino]-4-pyrimidinyl}amino)-N-methyl-4-[(2,2,2-trifluoro-1-methylethyl)oxy]benzenesulfonamide trifluoroacetate]
CNS(=O)(=O)c1cccc(Nc2cc(Nc3ccc(OC)c(F)c3)ncn2)c1 [Example 105, 3-[(6-{[3-fluoro-4-(methyloxy)phenyl]amino}-4-pyrimidinyl)amino]-N-methylbenzenesulfonamide trifluoroacetate]
CNS(=O)(=O)c1ccc(SC)c(Nc2cc(Nc3ccc4c(c3)NC(=O)CC4)ncn2)c1 [Example 109, N-methyl-4-(methylthio)-3-({6-[(2-oxo-1,2,3,4-tetrahydro-7-quinolinyl)amino]-4-pyrimidinyl}amino)benzenesulfonamide]
CCNc1cc(Nc2cccc(S(=O)(=O)NC)c2)ncn1.Cl [Example 4, 3-{[6-(ethylamino)-4-pyrimidinyl]amino}-N-methylbenzenesulfonamide hydrochloride]
CNS(=O)(=O)c1cccc(Nc2cc(Nc3cccc(-c4cnccc4OC)c3)ncn2)c1 [Example 340, N-methyl-3-{[6-({3-[4-(methyloxy)-3-pyridinyl]phenyl}amino)-4-pyrimidinyl]amino}benzenesulfonamide]
CNS(=O)(=O)c1cccc(Nc2cc(Nc3cccc(C(=O)Nc4ccccc4)c3)ncn2)c1 [Example 65, 3-{[6-({3-[(methylamino)sulfonyl]phenyl}amino)-4-pyrimidinyl]amino}-N-phenylbenzamide trifluoroacetate]
CNS(=O)(=O)c1ccc(SC)c(Nc2cc(Nc3ccc4c(c3)CCC4)ncn2)c1 [Example 169, 3-[6-(indan-5-ylamino)-pyrimidin-4-ylamino]-N-methyl-4-methylsulfanyl-benzenesulfonamide trifluoroacetate]
CNS(=O)(=O)c1cccc(Nc2cc(Nc3ccc(N(C)C)cc3)ncn2)c1 [Example 86, 3-[(6-{[4-(dimethylamino)phenyl]amino}-4-pyrimidinyl)amino]-N-methylbenzenesulfonamide]
CNS(=O)(=O)c1cccc(Nc2cc(Nc3cccc(C(C)=O)c3)ncn2)c1 [Example 52, 3-({6-[(3-acetylphenyl)amino]-4-pyrimidinyl}amino)-N-methylbenzenesulfonamide trifluoroacetate]
CNS(=O)(=O)c1ccc(SC)c(Nc2cc(Nc3ccc(C(C)C)cc3)ncn2)c1.Cl [Example 31, N-methyl-3-[(6-{[4-(1-methylethyl)phenyl]amino}-4-pyrimidinyl)amino]-4-(methylthio)benzenesulfonamide hydrochloride]
CNS(=O)(=O)c1ccc(-c2cccc(Nc3cc(Nc4cccc(S(=O)(=O)NC)c4)ncn3)c2)cc1 [Example 344, N-methyl-3′-{[6-({3-[(methylamino)sulfonyl]phenyl}amino)-4-pyrimidinyl]amino}-4-biphenylsulfonamide]
CNS(=O)(=O)c1cccc(Nc2cc(Nc3ccc(C(C)(C)C)cc3)ncn2)c1 [Example 83, 3-[(6-{[4-(1,1-dimethylethyl)phenyl]amino}-4-pyrimidinyl)amino]-N-methylbenzenesulfonamide trifluoroacetate]
CNS(=O)(=O)c1cccc(Nc2cc(Nc3ccc(Cl)c(OC)c3)ncn2)c1 [Example 236, 3-[(6-{[4-chloro-3-(methyloxy)phenyl]amino}-4-pyrimidinyl)amino]-N-methylbenzenesulfonamide trifluoroacetate]
CNS(=O)(=O)c1ccc(OC(C)(C)C(F)(F)F)c(Nc2cc(Nc3ccc(Cl)cc3)ncn2)c1 [Example 136, 3-({6-[(4-chlorophenyl)amino]-4-pyrimidinyl}amino)-N-methyl-4-[(2,2,2-trifluoro-1,1-dimethylethyl)oxy]benzenesulfonamide]
CCC(CC)Oc1ccc(S(=O)(=O)NC)cc1Nc1cc(Nc2ccc(Cl)cc2)ncn1 [Example 15, 3-({6-[(4-chlorophenyl)amino]-4-pyrimidinyl}amino)-4-[(1-ethylpropyl)oxy]-N-methylbenzenesulfonamide trifluoroacetate]
CNS(=O)(=O)c1ccc(OCC(F)(F)F)c(Nc2cc(Nc3ccc(C#N)cn3)ncn2)c1 [Example 294, 3-({6-[(5-cyano-2-pyridinyl)amino]-4-pyrimidinyl}amino)-N-methyl-4-[(2,2,2-trifluoroethyl)oxy]benzenesulfonamide trifluoroacetate]
CNS(=O)(=O)c1cccc(Nc2cc(Nc3ccc(C(=O)N4CCNCC4)cc3)ncn2)c1 [Example 356, N-methyl-3-[(6-{[4-(1-piperazinylcarbonyl)phenyl]amino}-4-pyrimidinyl)amino]benzenesulfonamide]
CNS(=O)(=O)c1ccc(OC(C)C(F)(F)F)c(Nc2cc(Nc3ccc(Cl)cc3)ncn2)c1 (centres unmarked) [Example 21, 3-({6-[(4-chlorophenyl)amino]-4-pyrimidinyl}amino)-N-methyl-4-[(2,2,2-trifluoro-1-methylethyl)oxy]benzenesulfonamide trifluoroacetate]
CNS(=O)(=O)c1ccc(SC)c(Nc2cc(Nc3ccc(N4CCNCC4)cc3)ncn2)c1 [Example 161, N-methyl-4-(methylthio)-3-(6-(4-(piperazin-1-yl)phenylamino)pyrimidin-4-ylamino)benzenesulfonamide trifluoroacetate]
CCSc1ccc(S(=O)(=O)NC)cc1Nc1cc(Nc2ccc(C(F)(F)F)cc2)ncn1 [Example 123, 4-(ethylthio)-N-methyl-3-(6-(4-(trifluoromethyl)phenylamino)pyrimidin-4-ylamino)benzenesulfonamide trifluoroacetate]
CNS(=O)(=O)c1cccc(Nc2cc(Nc3ccc(OC)c(OC)c3)ncn2)c1 [Example 206, 3-[(6-{[3,4-bis(methyloxy)phenyl]amino}-4-pyrimidinyl)amino]-N-methylbenzenesulfonamide trifluoroacetate]

From patent US20120329784A1, “COMPOUNDS AND METHODS” (priority 2010, published 2012)
